{"source": "patent US11642345B2", "about": "“Replication stress pathway agent compositions and methods for treating cancer” (Boundless Bio, Inc., priority 2020, dated 2023)", "note": "Some results were stated once for a whole list of compounds, not compound by compound. At least one structure is not confirmed: it was looked up by name or label, or the drawing left a doubt. Some compounds share one range, which may span the group rather than tell each member."}
{"tested_on": "Colo320 DM ecDNA+ and Colo320 HSR ecDNA− cells", "assay": "Sensitivity of Colo320 DM and Colo320 HSR to CHK1 inhibitors, seven days (FIG. 13)", "format": "cell-based", "details": "seven days treatment", "experimental": "The sensitivity of an ecDNA+ cell line (Colo320 DM) compared with an ecDNA− cell line (Colo320 HSR) to four structurally distinct CHK1 inhibitors was determined."}
{"smiles": "Cc1cnc(NC(=O)Nc2cc(Br)c(C)cc2OC[C@@H]2CNCCO2)cn1", "note": "[Rabusertib, rabusertib]", "fold enhanced sensitivity to CHK1 inhibition, Colo320 DM ecDNA+ compared with Colo320 HSR ecDNA−": "5-10 fold"}
{"smiles": "N[C@@H]1CCCN(c2c(Br)cnc3[nH]cc(NC(=O)C4CC4)c23)C1", "note": "[GDC-0575]", "fold enhanced sensitivity to CHK1 inhibition, Colo320 DM ecDNA+ compared with Colo320 HSR ecDNA−": "5-10 fold"}
{"smiles": "N#Cc1cnc(Nc2cc(NC[C@H]3CNCCO3)c(C(F)(F)F)cn2)cn1", "note": "[SRA737]", "fold enhanced sensitivity to CHK1 inhibition, Colo320 DM ecDNA+ compared with Colo320 HSR ecDNA−": "5-10 fold"}
{"tested_on": "Colo320 ecDNA+ (COLO320 DM) and Colo320 ecDNA− (COLO320 HSR) cells", "assay": "Sensitivity of Colo320 ecDNA+ and ecDNA− cells to RNR inhibitors (FIG. 12)", "format": "cell-based", "details": "RNR inhibitor treatment"}
{"smiles": "Cc1ccc(F)c([C@@H](C)[C@H](NS(=O)(=O)c2ccc(Cl)cc2C(N)=O)c2n[nH]c(=O)o2)c1C", "note": "[compound 1, 5-chloro-2-(n-((1S,2R)-2-(6-fluoro-2,3-dimethylphenyl)-1-(5-oxo-4,5-dihydro-1,3,4-oxadiazol-2-yl)propyl)sulfamoyl)benzamide]", "fold more sensitive, ecDNA positive cells (Colo320 DM) compared to ecDNA negative cell line (Colo320 HSR)": "5-10 fold"}
{"smiles": "NC(=O)NO", "note": "[hydroxyurea]", "fold more sensitive, ecDNA positive cells (Colo320 DM) compared to ecDNA negative cell line (Colo320 HSR)": "5-10 fold"}
{"smiles": "Nc1ccn([C@@H]2O[C@H](CO)[C@@H](O)C2(F)F)c(=O)n1", "note": "[gemcitabine]", "fold more sensitive, ecDNA positive cells (Colo320 DM) compared to ecDNA negative cell line (Colo320 HSR)": "5-10 fold"}
